Drawing on publication doi:10.1101/436147, this text covers binding for two molecules.

By UniProt entry, the sequences of proteins in these tests, tags left out.
UniProt Q17963: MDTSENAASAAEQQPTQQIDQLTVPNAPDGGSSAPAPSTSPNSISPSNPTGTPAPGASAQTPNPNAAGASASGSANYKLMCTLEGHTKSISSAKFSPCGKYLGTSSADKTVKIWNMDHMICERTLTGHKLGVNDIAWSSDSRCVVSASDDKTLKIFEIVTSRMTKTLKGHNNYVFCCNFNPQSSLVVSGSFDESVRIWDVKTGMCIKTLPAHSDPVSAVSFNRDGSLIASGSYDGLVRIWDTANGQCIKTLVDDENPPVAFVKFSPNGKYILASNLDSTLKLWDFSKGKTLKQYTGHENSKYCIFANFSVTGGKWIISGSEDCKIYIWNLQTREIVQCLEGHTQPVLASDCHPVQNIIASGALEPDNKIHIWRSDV

In one assay the target is T1, CFP-1::GFP (C. elegans) (UniProt Q9XUE7).
T1 sequence: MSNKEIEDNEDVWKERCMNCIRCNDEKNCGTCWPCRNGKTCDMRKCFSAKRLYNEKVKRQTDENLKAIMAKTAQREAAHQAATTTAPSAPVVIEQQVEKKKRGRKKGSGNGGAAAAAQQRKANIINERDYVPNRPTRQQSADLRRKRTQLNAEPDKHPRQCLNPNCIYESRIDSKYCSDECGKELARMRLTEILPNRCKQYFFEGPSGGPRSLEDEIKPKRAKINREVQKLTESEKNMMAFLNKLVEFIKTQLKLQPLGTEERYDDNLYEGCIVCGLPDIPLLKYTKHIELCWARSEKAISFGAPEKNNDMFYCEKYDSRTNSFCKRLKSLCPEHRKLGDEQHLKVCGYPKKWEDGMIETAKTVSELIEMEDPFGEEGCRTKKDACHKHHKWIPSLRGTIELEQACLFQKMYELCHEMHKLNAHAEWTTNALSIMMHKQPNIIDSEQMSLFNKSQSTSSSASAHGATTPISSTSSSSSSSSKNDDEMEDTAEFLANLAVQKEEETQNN
Briefly: affinity purification with mass spectrometry.

Another assay deals with HA::WDR-5.1 (C. elegans) (UniProt Q17963). The experiment in a line: affinity purification with mass spectrometry.

No constants are given. Whether binding was seen depends on the method and setting. In cells and extracts the contact can be indirect. These calls come from enrichment with a bait or labelling near it, and not all partners need be listed. For some of these results: Tags and fused reporters may be left off the sequences shown.

B1: MRG-1 (protein, UniProt A7DTF0 1-337)
chain: MSSKKNFEVGENVACIYKGKPYDAKITDIKTNSDGKELYCVHFKGWNNRYDEKIPVGEEKDRIFKGTASEYAEKHNAELPTTALKPKKKSLAAEAPRDDRDDTPGTSKGKKAKSVTIAPVMTADDMKVELPKPLRKILIDDYDLVCRYFINIVPHEYSVDQIIEDYIKTIPVSNEQMRTVDDLLIEYEEADIKITNLALICTARGLVDYFNVTLGSSYQLLYKFERPQYNDLVKKRAMEKGIDITNPTALQDSGFRPSQEYGIVHFLRMLAKLPDYLKLTQWNDHVINRIMIGVHDLIVFLNKNHGKYYRGSSDYQGASNDYYRRSLAADDGVGANQ
As to B1, the binding entry with CFP-1::GFP (C. elegans) and with HA::WDR-5.1 (C. elegans) was “binds” in each case.

B2: HCF-1 (protein, UniProt G5EC23 1-782)
chain: MDEDVGLEATNYSRGDESRSEEQEKNVVRWRIVQQSTGPNPKPRHGHRAVVLKELIVIFGGGNEGMIDELHAYNTQKREWTAPQCCGDVPTPAAAFGAISLGNKIYRFGGMTEYGKYTNDLYELQSTRWEWRRLNPRVHSNGHLPCPRIGHSFVVSQKSQKAYVFGGLSNDLNDPKRNVPHYLDDLYVINLSGPQHLIWEKLNATGPGPISRESHTAVIYEKDSISRMVVYGGMNGVRLGDLWYLNLNTLHWTEIKFDDPRTGIPPMPRSLHSSVLIGDKMFVYGGWVPLLEHASTEQQTEKEWKCTSSLGCWNITEDRWVPLHLYCSDEDTIPRGRAGHCAAAVGDRMYIWSGRDGYRKAWSNQVCCRDMWLLDTILPEQPGKVQLGRAGFNSLEISWPIVQGASGYFLQIGFGDAKEQSVSPIKRATTSPRKQPSIVPPSQKETEQSPKKPQGTAPSIISTQGTTYTAPADPKPATDEGGLPQDLFEDTEKNETASPKRSNDAQSADSSTCEQKKTDESGLEEDSEKDQKPSDAGETDEMKEENGDDDLPWFDVGIIDKATINVTHYFNDRQQSLEKQLNDLIDHNAFKCVNDSVFTTEDKIPLINGQSYRFRVSAINGLGKGAWSETASCKTCVPGYPSAPSSIRITKSHEGAQLTWEPPSNTNISGKIIEYSVYLAVKNQSANSADSQLAFMRVYCGPQADCQVLQSNLGTAFVDQTNKPAIIFRIAARNEKGYGPATQVRWLQDQQKIPVRTNYPNNSGFIYQQHGGQQKRARFDHQ
Consider B2, for which the binding entry with CFP-1::GFP (C. elegans) and in the assay with HA::WDR-5.1 (C. elegans) was “binds” each time.
